Laboratory results as given in PubChem BioAssay AID2685 (National Center for Advancing Translational Sciences (NCATS), 2010).
Some of the results follow. Shown are side measurements of this screen, not its main read-out; they come without a call. Most of these compounds were active or inconclusive in the main read-out, so they are no random draw. The note in brackets gives the kind of curve behind each potency; many fits are weak.

Test: qHTS Assay for Lipid Storage Modulators in Drosophila S3 Cells;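 as to cell number change: cells counted by Cell Tracker Red CMTPX staining in the red channel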
Settings: BODIPY lipid droplet fluorescence, 18-24 h; for cell number change: measured here: cell count max response, cells fed with added oleic acid
Outline: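 Drosophila S3 cells loaded with oleic acid (400 uM, as added) and compounds at several concentrations; lipid droplets imaged by 488-nm laser-scanning cytometry, 500–530 nm intensity and object ratio to cell channel. Percent activity normalized to 20 uM Triacsin C.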

[1] = measured here: lipid fluorescence (Fed channel) AC50, cells fed with added oleic acid
[2] = measured here: cell number channel AC50, cells fed with added oleic acid

| Compound | cell number change [%] | AC50 [1] | AC50 [2] |
| --- | --- | --- | --- |
| CS(=O)(=O)c1ccc(NS(=O)(=O)c2ccc(Cl)c(C(=O)NCc3ccco3)c2)cc1 | 2.38 | 3.66 µM [falling, single point] | – |
| Nc1[nH]nc2ncc3cc4ccccc4nc3c12 | -63 | 0.651 µM [falling, full curve] | 1.3 µM [falling, full curve, poor fit] |
| Cc1nc2sccc2c(=O)n1-c1cccc(Cl)c1 | -7.28 | 0.259 µM [rising, full curve, poor fit] | – |
| COc1ccc(-c2ccc(-c3nnn(CC(C)=O)n3)cc2)cc1 | 1.28 | 5.17 µM [rising, partial curve, poor fit] | – |
| CCn1c(SCC(=O)Nc2ccc(OC)cc2)nc2nc3c(cc2c1=O)CCCC3 | 17.3 | – | – |
| CC1CCCC(C)N1C(=O)Cn1cc(/C=C2/C(=O)Nc3ccccc32)c2ccccc21 (stereo unspecified) | – | 20.6 µM [falling, partial curve] | – |
| CCn1cc(C(=O)N2CCN(c3ccc(F)cc3)CC2)c2cc(OC)c(OC)cc2c1=O | 30.9 | – | 3.26 µM [rising, full curve] |
| CC1CC(C)CN(CCCn2c(=S)[nH]c3ccccc3c2=O)C1 (stereo unspecified) | -12.5 | 0.00461 µM [falling, full curve, poor fit] | 0.13 µM [falling, full curve, poor fit] |
| CCOC(=O)C1=C(c2ccccc2)N=C2SCC(=O)N2C1c1ccc(OCC)c(OCC)c1 (stereo unspecified) | -1.93 | 3.66 µM [rising, partial curve] | – |
| CCOC(=O)c1ccc(N2C(=O)CC(N3CCC(C(=O)OCC)CC3)C2=O)cc1 (stereo unspecified) | -12.4 | – | – |
| C=CCn1c(C)c(C(C)=O)c(SC)nc1=S | 12 | 0.00411 µM [falling, full curve, poor fit] | – |
| Cc1ccc(-c2nnn(CC(=O)N(CC(=O)NCC3CCCO3)c3ccccc3)n2)o1 (stereo unspecified) | -96.1 | – | 25.9 µM [falling, partial curve, poor fit] |
| CC(OC(=O)CSc1ccc([N+](=O)[O-])cc1)C(=O)NC1CC1 (stereo unspecified) | 11.2 | 20.6 µM [falling, single point] | – |
| COc1ccc(-n2cnc3cc(NC(=O)c4ccco4)ccc32)cc1 | – | 3.26 µM [rising, partial curve] | – |
| O=C(CCNS(=O)(=O)c1ccccc1)OCC(=O)c1ccc[nH]1 | -6.76 | 29.1 µM [falling, single point] | – |
| COc1ccc(C(C)=O)cc1CC(=O)NC1CCCCCC1 | 11.2 | – | – |
| CCCCc1ccc(S(=O)(=O)N/N=C(/C)c2ccncc2)cc1 | – | 20.6 µM [falling, single point] | – |
| COc1cccc(CNS(=O)(=O)c2cccc(S(=O)(=O)N3CCOCC3)c2)c1 | 32.1 | 29.1 µM [rising, single point] | 29.1 µM [rising, single point] |

Reprinted at random: 2 records from the list

| Compound | cell number change [%] | AC50 [1] | AC50 [2] |
| --- | --- | --- | --- |
| COc1ccc(-n2cnc3cc(NC(=O)c4ccco4)ccc32)cc1 | – | 3.26 µM [rising, partial curve] | – |
| COc1cccc(CNS(=O)(=O)c2cccc(S(=O)(=O)N3CCOCC3)c2)c1 | 32.1 | 29.1 µM [rising, single point] | 29.1 µM [rising, single point] |

The listing continues:

| Compound | cell number change [%] | AC50 [1] | AC50 [2] |
| --- | --- | --- | --- |
| Cc1cc(NS(=O)(=O)c2ccccc2)c(C)c(Cl)c1O | 16.3 | 0.116 µM [falling, single point] | – |
| CC(C)(C)NC(=O)CSc1nnnn1C(C)(C)C | -7.66 | 4.61 µM [falling, partial curve, poor fit] | 5.8 µM [falling, partial curve] |
| Cc1ccnc(Nc2nc(-c3c(C)nc4sccn34)cs2)c1 | 8.11 | 11.6 µM [rising, partial curve] | – |
| Cc1cccc(-c2noc(C(C)NC(=O)c3ccco3)n2)c1 (stereo unspecified) | -10.9 | 0.206 µM [rising, single point] | – |
| O=C(c1ccccc1F)N1CCN(c2ccc([N+](=O)[O-])c3ncccc23)CC1 | – | – | 6.51 µM [rising, single point] |
| CC(c1ccccc1)N1C(=O)CC(Sc2ncccc2C(=O)O)C1=O (stereo unspecified) | – | 1.03 µM [falling, full curve, poor fit] | 0.103 µM [falling, full curve, poor fit] |
| COc1ccc(-c2cc(C(=O)NC(C(=O)O)C(C)C)c(C)o2)cc1OC (stereo unspecified) | -8.67 | 3.26 µM [rising, single point] | – |
| CC(C)CN(C(=O)COC(=O)c1ccc2c(c1)OCO2)c1c(N)n(Cc2ccccc2)c(=O)[nH]c1=O | 11 | 0.366 µM [falling, partial curve, poor fit] | – |
| COc1ccc(C)cc1S(=O)(=O)N1CCN(C(=O)c2ncoc2-c2ccccc2F)CC1 | 14.5 | 35.5 µM [falling, single point] | – |
| COC(=O)c1ccccc1NC(=S)NC(=O)c1ccccc1C | -7.1 | 0.326 µM [rising, full curve] | – |
| CCOC(=O)c1ccc(S(=O)(=O)N2CCC(C(=O)NCc3ccccc3OC)CC2)cc1 | 44.1 | 8.2 µM [rising, partial curve] | 20.6 µM [rising, partial curve, poor fit] |
| CN1C=CC(=CC=C2C=CC(=O)C=C2)C=C1 | 7.8 | 0.92 µM [falling, full curve, poor fit] | – |
| Cc1cc(C)c(S(=O)(=O)c2ccccc2C)c(Oc2ccccc2)n1 | -62.3 | 23.1 µM [falling, single point] | 23.1 µM [falling, single point] |
| CCCn1c(SCC(=O)NCc2ccco2)nnc1C(C)C | -21.7 | 9.2 µM [falling, partial curve, poor fit] | – |
| O=C(CSc1nnc(NC(=O)C2CC2)s1)NCc1ccc(F)cc1 | 26.6 | 1.64 µM [rising, partial curve] | – |
| Cc1[nH]c(C)c(S(=O)(=O)N2CCN(c3ccc(Cl)cc3)CC2)c1C(=O)N1CCCC1 | – | 3.66 µM [falling, single point] | – |
| CCOC(=O)N1CCN(c2nc(C)c3c(n2)CC(C)CC3=O)CC1 (stereo unspecified) | 71.6 | 1.46 µM [rising, full curve, poor fit] | 1.84 µM [rising, full curve] |
| O=c1[nH]ncc(NCc2ccc(Cl)cc2)c1Cl | -7.01 | 1.3 µM [falling, full curve] | – |
